No constants are given. Whether binding was seen depends on the method and setting. Binding can be weak; no strength is given.

The results in this text go back to article PMC8834003.

This assay concerns the target T1, mouse sperm-associated antigen 6-like (SPAG6L), the evolved gene on chromosome 16 (mouse) (UniProt Q9JLI7).
T1 sequence: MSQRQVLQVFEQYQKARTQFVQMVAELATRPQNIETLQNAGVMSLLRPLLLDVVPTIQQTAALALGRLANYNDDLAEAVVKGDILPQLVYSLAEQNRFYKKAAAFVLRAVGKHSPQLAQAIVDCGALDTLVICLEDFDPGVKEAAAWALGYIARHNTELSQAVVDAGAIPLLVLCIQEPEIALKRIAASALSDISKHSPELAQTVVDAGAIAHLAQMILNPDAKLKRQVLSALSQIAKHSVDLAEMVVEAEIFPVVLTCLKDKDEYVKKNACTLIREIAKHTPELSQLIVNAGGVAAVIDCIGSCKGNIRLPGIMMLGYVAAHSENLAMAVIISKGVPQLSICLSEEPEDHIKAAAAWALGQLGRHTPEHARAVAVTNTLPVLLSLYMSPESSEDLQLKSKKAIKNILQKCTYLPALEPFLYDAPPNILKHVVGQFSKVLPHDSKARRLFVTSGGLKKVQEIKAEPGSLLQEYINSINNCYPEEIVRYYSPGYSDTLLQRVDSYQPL
Briefly: two-hybrid; direct yeast two-hybrid assay; indicated pGBK-T7 and pGAD-T7 plasmids transformed into AH109 yeast; growth on non-selection medium (SD-2) and selection medium (SD-3).

On to TAC1, for which the binding result is “binds”.
